# The list shows a part of the results.
# B1: FimA (Actinomyces oris) (protein)
# chain: MHHHHHHSSGVDLGTENLYFQSNAETPNYGNIKTDATGSLVIHKHLTGGGKDIGTPTGTAQNADDKGPAVEGVVFTAYPITDINLKDPAGWDTISNLSRTGVPDSACANPAAPTLGAHQFGTPKVSPATTKEGLATITEMPVQAYLVCETTTPGDIVQKAKPFVVTIPHPNTAAGADGQWIYDVNVYPKNEAIDVDKTIQAQKLNGYGVGSLIKFPVESTAPTLDAKSFYKYFQLKDTLDERLSEVTATDVSLEGTPLQPTDYKVETKQQTVTVTFTAEGLKKIKAAPGKKVSAVFQGKVTKAGNGAITNRAQVISDTLYAEQPPTPETPPTDPENPPTSDEVISRWGDLSIKKVDTHQQGQTKAGLQGAQFQLYKAKNAYANTCSNEKEGAPIAINGQTTLTTDAQGAIDIKGLFISDSIDGADRDNQVNAMERCYVLVETKAPAGYVLPAGNGAATPVKVKAGEETTDNVTVENTKQSVPGLPLTG
# What was measured:
# Experiment in all cases: glycan array binding signal (z-score within array); higher = stronger binding
# Conditions in all cases: glycan notation: IUPAC condensed, linker removed
# [1] = target: Gal(b1-4)GlcNAc(b1-6)GalNAc
# How it was run: (§1)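 Negative Z-scores can be read as non-binding. The Z-score is calculated within each array and then averaged across arrays of one protein sequence at different concentrations or buffers and across linkers. Arrays, 3228 in all, were curated from the Consortium for Functional Glycomics database and kept only where the protein sequence was available.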
# [2] = target: Gal(b1-4)GlcNAc(b1-6)[Gal(b1-3)]GalNAc
# How it was run: as §1
# [3] = target: Gal(b1-4)GlcNAc(b1-6)[Gal(b1-4)GlcNAc(b1-3)]GalNAc
# How it was run: as §1
# Gal(b1-4)GlcNAc6P = target: Gal(b1-4)GlcNAc6P
# How it was run: as §1
# Gal(b1-6)Gal = target: Gal(b1-6)Gal
# How it was run: as §1
# Gal3S(b1-3)GalNAc = target: Gal3S(b1-3)GalNAc
# How it was run: as §1
# Gal3S(b1-3)GlcNAc = target: Gal3S(b1-3)GlcNAc
# How it was run: as §1
# [4] = target: Gal3S(b1-3)[Fuc(a1-4)]GlcNAc
# How it was run: as §1
# Gal3S(b1-4)Glc = target: Gal3S(b1-4)Glc
# How it was run: as §1
# Gal3S(b1-4)Glc6S = target: Gal3S(b1-4)Glc6S
# How it was run: as §1
# Gal3S(b1-4)GlcNAc = target: Gal3S(b1-4)GlcNAc
# How it was run: as §1
# [5] = target: Gal3S(b1-4)[Fuc(a1-3)]Glc6S
# How it was run: as §1
# [6] = target: Gal3S(b1-4)[Fuc(a1-3)]GlcNAc
# How it was run: as §1
# [7] = target: Gal3S(b1-4)[Fuc(a1-3)]GlcNAc6S
# How it was run: as §1
# Gal3S4S(b1-4)GlcNAc = target: Gal3S4S(b1-4)GlcNAc
# How it was run: as §1
# Gal3S6S(b1-4)GlcNAc = target: Gal3S6S(b1-4)GlcNAc
# How it was run: as §1
# Gal3S6S(b1-4)GlcNAc6S = target: Gal3S6S(b1-4)GlcNAc6S
# How it was run: as §1
# Gal4S(b1-4)GlcNAc = target: Gal4S(b1-4)GlcNAc
# How it was run: as §1
# Gal4S6S(b1-4)GlcNAc = target: Gal4S6S(b1-4)GlcNAc
# How it was run: as §1
# Gal6P(b1-4)GlcNAc = target: Gal6P(b1-4)GlcNAc
# How it was run: as §1
# Gal6S(b1-3)GlcNAc = target: Gal6S(b1-3)GlcNAc
# How it was run: as §1
# Gal6S(b1-3)GlcNAc6S = target: Gal6S(b1-3)GlcNAc6S
# How it was run: as §1
# Gal6S(b1-4)Glc = target: Gal6S(b1-4)Glc
# How it was run: as §1
# Gal6S(b1-4)Glc6S = target: Gal6S(b1-4)Glc6S
# How it was run: as §1
# Gal6S(b1-4)GlcNAc = target: Gal6S(b1-4)GlcNAc
# How it was run: as §1
# Gal6S(b1-4)GlcNAc6S = target: Gal6S(b1-4)GlcNAc6S
# How it was run: as §1
# GalNAc(a1-3)Gal = target: GalNAc(a1-3)Gal
# How it was run: as §1
# GalNAc(a1-3)GalNAc = target: GalNAc(a1-3)GalNAc
# How it was run: as §1
# [8] = target: GalNAc(a1-3)GalNAc(b1-3)Gal(a1-4)Gal(b1-4)Glc
# How it was run: as §1
# [9] = target: GalNAc(a1-3)GalNAc(b1-3)Gal(a1-4)Gal(b1-4)GlcNAc
# How it was run: as §1
# GalNAc(b1-3)Gal = target: GalNAc(b1-3)Gal
# How it was run: as §1
# [10] = target: GalNAc(b1-3)Gal(a1-4)Gal(b1-4)GlcNAc
# How it was run: as §1
# [11] = target: GalNAc(b1-3)Gal(a1-4)Gal(b1-4)GlcNAc(b1-3)Gal(b1-4)Glc
# How it was run: as §1
# [12] = target: GalNAc(b1-3)Gal(a1-6)Gal(b1-4)Glc
# How it was run: as §1
# GalNAc(b1-3)GalNAc = target: GalNAc(b1-3)GalNAc
# How it was run: as §1
# GalNAc(b1-3)GlcNAc = target: GalNAc(b1-3)GlcNAc
# How it was run: as §1
# GalNAc(b1-4)Gal(b1-4)Glc = target: GalNAc(b1-4)Gal(b1-4)Glc
# How it was run: as §1
# GalNAc(b1-4)GlcNAc = target: GalNAc(b1-4)GlcNAc
# How it was run: as §1
binder,measurement,setting,value
B1,glycan array binding signal (z-score),[1],0.299
same,glycan array binding signal (z-score),[2],-0.664
same,glycan array binding signal (z-score),[3],-0.188
same,glycan array binding signal (z-score),Gal(b1-4)GlcNAc6P,-0.808
same,glycan array binding signal (z-score),Gal(b1-6)Gal,-0.395
same,glycan array binding signal (z-score),Gal3S(b1-3)GalNAc,0.867
same,glycan array binding signal (z-score),Gal3S(b1-3)GlcNAc,1.03
same,glycan array binding signal (z-score),[4],0.625
same,glycan array binding signal (z-score),Gal3S(b1-4)Glc,0.47
same,glycan array binding signal (z-score),Gal3S(b1-4)Glc6S,-0.312
same,glycan array binding signal (z-score),Gal3S(b1-4)GlcNAc,-0.013
same,glycan array binding signal (z-score),[5],3.23
same,glycan array binding signal (z-score),[6],0.49
same,glycan array binding signal (z-score),[7],0.807
same,glycan array binding signal (z-score),Gal3S4S(b1-4)GlcNAc,-0.582
same,glycan array binding signal (z-score),Gal3S6S(b1-4)GlcNAc,0.229
same,glycan array binding signal (z-score),Gal3S6S(b1-4)GlcNAc6S,0.183
same,glycan array binding signal (z-score),Gal4S(b1-4)GlcNAc,0.095
same,glycan array binding signal (z-score),Gal4S6S(b1-4)GlcNAc,-0.001
same,glycan array binding signal (z-score),Gal6P(b1-4)GlcNAc,-0.719
same,glycan array binding signal (z-score),Gal6S(b1-3)GlcNAc,-0.701
same,glycan array binding signal (z-score),Gal6S(b1-3)GlcNAc6S,-0.671
same,glycan array binding signal (z-score),Gal6S(b1-4)Glc,0.187
same,glycan array binding signal (z-score),Gal6S(b1-4)Glc6S,0.624
same,glycan array binding signal (z-score),Gal6S(b1-4)GlcNAc,-0.234
same,glycan array binding signal (z-score),Gal6S(b1-4)GlcNAc6S,4.75
same,glycan array binding signal (z-score),GalNAc(a1-3)Gal,0.616
same,glycan array binding signal (z-score),GalNAc(a1-3)GalNAc,-0.618
same,glycan array binding signal (z-score),[8],-0.283
same,glycan array binding signal (z-score),[9],-0.436
same,glycan array binding signal (z-score),GalNAc(b1-3)Gal,-0.256
same,glycan array binding signal (z-score),[10],0.922
same,glycan array binding signal (z-score),[11],-0.25
same,glycan array binding signal (z-score),[12],-0.879
same,glycan array binding signal (z-score),GalNAc(b1-3)GalNAc,-0.512
same,glycan array binding signal (z-score),GalNAc(b1-3)GlcNAc,-0.211
same,glycan array binding signal (z-score),GalNAc(b1-4)Gal(b1-4)Glc,0.201
same,glycan array binding signal (z-score),GalNAc(b1-4)GlcNAc,0.303

# Shown bar-delimited: entries from further up
binder | measurement | setting | value
B1 | glycan array binding signal (z-score) | Gal3S(b1-4)Glc6S | -0.312
same | glycan array binding signal (z-score) | GalNAc(b1-4)GlcNAc | 0.303

# Reference: the supplement of paper PMC8728848
